# Paper PMC10748395
# Results are given in words; binding and its absence hold for the method and conditions named. In cells and extracts the contact can be indirect. These calls come from enrichment with a bait or labelling near it, and not all partners need be listed.
# B1: GIPC1 in colorectal cancer cell lysates (SW620, SW480) (protein, UniProt O14908 1-333)
# chain: MPLGLGRRKKAPPLVENEEAEPGRGGLGVGEPGPLGGGGSGGPQMGLPPPPPALRPRLVFHTQLAHGSPTGRIEGFTNVKELYGKIAEAFRLPTAEVMFCTLNTHKVDMDKLLGGQIGLEDFIFAHVKGQRKEVEVFKSEDALGLTITDNGAGYAFIKRIKEGSVIDHIHLISVGDMIEAINGQSLLGCRHYEVARLLKELPRGRTFTLKLTEPRKAFDMISQRSAGGRPGSGPQLGTGRGTLRLRSRGPATVEDLPSAFEEKAIEKVDDLLESYMGIRDTELAATMVELGKDKRNPDELAEALDERLGDFAFPDEFVFDVWGAIGDAKVGRY
# Target: T1, endogenous MACC1 of SW620 cells (human (endogenous in SW620)) (UniProt Q6ZN28)
# T1 sequence: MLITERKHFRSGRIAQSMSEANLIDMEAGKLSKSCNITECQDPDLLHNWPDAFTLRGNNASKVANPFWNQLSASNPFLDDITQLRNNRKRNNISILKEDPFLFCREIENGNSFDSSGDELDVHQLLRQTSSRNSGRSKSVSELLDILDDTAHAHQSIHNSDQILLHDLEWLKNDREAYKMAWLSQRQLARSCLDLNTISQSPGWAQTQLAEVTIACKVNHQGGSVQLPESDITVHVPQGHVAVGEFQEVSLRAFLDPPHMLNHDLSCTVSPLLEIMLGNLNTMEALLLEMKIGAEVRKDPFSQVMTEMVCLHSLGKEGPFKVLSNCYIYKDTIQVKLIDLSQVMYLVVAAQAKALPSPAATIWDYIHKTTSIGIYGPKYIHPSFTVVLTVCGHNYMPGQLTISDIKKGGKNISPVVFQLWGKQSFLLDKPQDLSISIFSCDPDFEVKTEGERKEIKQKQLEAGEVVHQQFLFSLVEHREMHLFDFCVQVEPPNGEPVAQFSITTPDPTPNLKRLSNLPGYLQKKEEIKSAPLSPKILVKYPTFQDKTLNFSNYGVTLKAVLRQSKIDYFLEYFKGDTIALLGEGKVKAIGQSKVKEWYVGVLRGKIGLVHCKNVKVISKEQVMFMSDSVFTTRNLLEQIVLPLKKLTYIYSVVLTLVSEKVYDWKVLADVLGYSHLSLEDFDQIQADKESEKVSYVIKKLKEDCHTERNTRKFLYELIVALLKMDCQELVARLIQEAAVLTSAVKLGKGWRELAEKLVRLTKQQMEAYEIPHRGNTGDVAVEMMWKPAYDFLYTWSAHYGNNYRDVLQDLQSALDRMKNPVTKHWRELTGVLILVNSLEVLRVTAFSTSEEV
# Assay: affinity purification with mass spectrometry; two independent immunoprecipitations of endogenous MACC1 from SW620 cells with two different MACC1 antibodies, eluates to shot-gun quantitative mass spectrometry (cLC-ESI-MS)
binder,measurement,value
B1,binding,binds
